B1: MPO myeloperoxidase: established AML-associated antigen, source protein of the HLA ligands listed under it (protein, UniProt P05164 165-745, looked up)
Myeloperoxidase: VTCPEQDKYRTITGMCNNRRSPTLGASNRAFVRWLPAEYEDGFSLPYGWTPGVKRNGFPVALARAVSNEIVRFPTDQLTPDQERSLMFMQWGQLLDHDLDFTPEPAARASFVTGVNCETSCVQQPPCFPLKIPPNDPRIKNQADCIPFFRSCPACPGSNITIRNQINALTSFVDASMVYGSEEPLARNLRNMSNQLGLLAVNQRFQDNGRALLPFDNLHDDPCLLTNRSARIPCFLAGDTRSSEMPELTSMHTLLLREHNRLATELKSLNPRWDGERLYQEARKIVGAMVQIITYRDYLPLVLGPTAMRKYLPTYRSYNDSVDPRIANVFTNAFRYGHTLIQPFMFRLDNRYQPMEPNPRVPLSRVFFASWRVVLEGGIDPILRGLMATPAKLNRQNQIAVDEIRERLFEQVMRIGLDLPALNMQRSRDHGLPGYNAWRRFCGLPQPETVGQLGTVLRNLKLARKLMEQYGTPNNIDIWMGGVSEPLKRKGRVGPLLACIIGTQFRKLRDGDRFWWENEGVFSMQQRQALAQISLPRIICDNTGITTVSKNNIFMSNSYPRDFVNCSTLPALNLASWREAS
B2: PRTN3 proteinase 3: established AML-associated antigen, source protein of the HLA ligands listed under it (protein, UniProt P24158 28-248, looked up)
Myeloblastin: IVGGHEAQPHSRPYMASLQMRGNPGSHFCGGTLIHPSFVLTAAHCLRDIPQRLVNVVLGAHNVRTQEPTQQHFSVAQVFLNNYDAENKLNDVLLIQLSSPANLSASVATVQLPQQDQPVPHGTQCLAMGWGRVGAHDPPAQVLQELNVTVVTFFCRPHNICTFVPRRKAGICFGDSGGPLICDGIIQGIDSFVIWGCATRLFPDFFTRVALYVDWIRSTLR
B3: RGS5 regulator of G-protein signaling 5: established AML-associated antigen, source protein of the HLA ligands listed under it (protein, UniProt O15539 1-181, looked up)
Regulator of G-protein …: MCKGLAALPHSCLERAKEIKIKLGILLQKPDSVGDLVIPYNEKPEKPAKTQKTSLDEALQWRDSLDKLLQNNYGLASFKSFLKSEFSEENLEFWIACEDYKKIKSPAKMAEKAKQIYEEFIQTEAPKEVNIDHFTKDITMKNLVEPSLSSFDMAQKRIHALMEKDSLPRFVRSEFYQELIK
B4: MAGED1 melanoma antigen family D, 1: established AML-associated antigen, source protein of the HLA ligands listed under it (protein, UniProt Q9Y5V3 1-778, looked up)
Melanoma-associated antigen D1: MAQKMDCGAGLLGFQAEASVEDSALLMQTLMEAIQISEAPPTNQATAAASPQSSQPPTANEMADIQVSAAAARPKSAFKVQNATTKGPNGVYDFSQAHNAKDVPNTQPKAAFKSQNATPKGPNAAYDFSQAATTGELAANKSEMAFKAQNATTKVGPNATYNFSQSLNANDLANSRPKTPFKAWNDTTKAPTADTQTQNVNQAKMATSQADIETDPGISEPDGATAQTSADGSQAQNLESRTIIRGKRTRKINNLNVEENSSGDQRRAPLAAGTWRSAPVPVTTQNPPGAPPNVLWQTPLAWQNPSGWQNQTARQTPPARQSPPARQTPPAWQNPVAWQNPVIWPNPVIWQNPVIWPNPIVWPGPVVWPNPLAWQNPPGWQTPPGWQTPPGWQGPPDWQGPPDWPLPPDWPLPPDWPLPTDWPLPPDWIPADWPIPPDWQNLRPSPNLRPSPNSRASQNPGAAQPRDVALLQERANKLVKYLMLKDYTKVPIKRSEMLRDIIREYTDVYPEIIERACFVLEKKFGIQLKEIDKEEHLYILISTPESLAGILGTTKDTPKLGLLLVILGVIFMNGNRASEAVLWEALRKMGLRPGVRHPLLGDLRKLLTYEFVKQKYLDYRRVPNSNPPEYEFLWGLRSYHETSKMKVLRFIAEVQKRDPRDWTAQFMEAADEALDALDAAAAEAEARAEARTRMGIGDEAVSGPWSWDDIEFELLTWDEEGDFGDPWSRIPFTFWARYHQNARSRFPQTFAGPIIGPGGTASANFAANFGAIGFFWVE
B5: CCNA1 cyclin A1: established AML-associated antigen, source protein of the HLA ligands listed under it (protein, UniProt P78396 1-465, looked up)
Cyclin-A1: METGFPAIMYPGSFIGGWGEEYLSWEGPGLPDFVFQQQPVESEAMHCSNPKSGVVLATVARGPDACQILTRAPLGQDPPQRTVLGLLTANGQYRRTCGQGITRIRCYSGSENAFPPAGKKALPDCGVQEPPKQGFDIYMDELEQGDRDSCSVREGMAFEDVYEVDTGTLKSDLHFLLDFNTVSPMLVDSSLLSQSEDISSLGTDVINVTEYAEEIYQYLREAEIRHRPKAHYMKKQPDITEGMRTILVDWLVEVGEEYKLRAETLYLAVNFLDRFLSCMSVLRGKLQLVGTAAMLLASKYEEIYPPEVDEFVYITDDTYTKRQLLKMEHLLLKVLAFDLTVPTTNQFLLQYLRRQGVCVRTENLAKYVAELSLLEADPFLKYLPSLIAAAAFCLANYTVNKHFWPETLAAFTGYSLSEIVPCLSELHKAYLDIPHRPQQAIREKYKASKYLCVSLMEPPAVLLLQ
B6: PASD1 pas domain containing 1: established AML-associated antigen, source protein of the HLA ligands listed under it (protein, UniProt Q8IV76 1-773, looked up)
Circadian clock protein PASD1: MKMRGEKRRDKVNPKSSQRKLNWIPSFPTYDYFNQVTLQLLDGFMITLSTDGVIICVAENISSLLGHLPAEIVGKKLLSLLPDEEKDEVYQKIILKFPLLNSETHIEFCCHLKRGNVEHGDSSAYENVKFIVNVRDICNEFPVVFSGLFSSHLCADFAACVPQEDRLYLVGNVCILRTQLLQQLYTSKAVSDEAVLTQDSDEEPFVGELSSSQGQRGHTSMKAVYVEPAAAAAAAAISDDQIDIAEVEQYGPQENVHMFVDSDSTYCSSTVFLDTMPESPALSLQDFRGEPEVNPLYRADPVDLEFSVDQVDSVDQEGPMDQQDPENPVAPLDQAGLMDPVDPEDSVDLGAAGASAQPLQPSSPVAYDIISQELELMKKLKEQLEERTWLLHDAIQNQQNALELMMDHLQKQPNTLRHVVIPDLQSSEAVPKKQQKQHAGQVKRPLPHPKDVKCFCGLSLSNSLKNTGELQEPCVAFNQQQLVQQEQHLKEQQRQLREQLQQLREQRKVQKQKKMQEKKKLQEQKMQEKKKLQEQRRQKKKKLQERKKWQGQMLQKEPEEEQQKQQLQEQPLKHNVIVGNERVQICLQNPRDVSVPLCNHPVRFLQAQPIVPVQRAAEQQPSGFYQDENCGQQEDESQSFYPEAYQGPPVNQLPLIDTSNSEAISSSSIPQFPITSDSTISTLETPQDYIRLWQELSDSLGPVVQVNTWSCDEQGTLHGQPTYHQVQVSEVGVEGPPDPQAFQGPAAYQPDQMRSAEQTRLMPAEQRDSNKPC
B7: BRAP BRCA1 associated protein: established AML-associated antigen, source protein of the HLA ligands listed under it (protein, UniProt Q7Z569 1-592, looked up)
BRCA1-associated protein: MSVSLVVIRLELAEHSPVPAGFGFSAAAGEMSDEEIKKTTLASAVACLEGKSPGEKVAIIHQHLGRREMTDVIIETMKSNPDELKTTVEERKSSEASPTAQRSKDHSKECINAAPDSPSKQLPDQISFFSGNPSVEIVHGIMHLYKTNKMTSLKEDVRRSAMLCILTVPAAMTSHDLMKFVAPFNEVIEQMKIIRDSTPNQYMVLIKFRAQADADSFYMTCNGRQFNSIEDDVCQLVYVERAEVLKSEDGASLPVMDLTELPKCTVCLERMDESVNGILTTLCNHSFHSQCLQRWDDTTCPVCRYCQTPEPVEENKCFECGVQENLWICLICGHIGCGRYVSRHAYKHFEETQHTYAMQLTNHRVWDYAGDNYVHRLVASKTDGKIVQYECEGDTCQEEKIDALQLEYSYLLTSQLESQRIYWENKIVRIEKDTAEEINNMKTKFKETIEKCDNLEHKLNDLLKEKQSVERKCTQLNTKVAKLTNELKEEQEMNKCLRANQVLLQNKLKEEERVLKETCDQKDLQITEIQEQLRDVMFYLETQQKINHLPAETRQEIQEGQINIAMASASSPASSGGSGKLPSRKGRSKRGK

Tests used:
Parameters in all cases: species or system human
BMNC of healthy donors = assay: HLA class I ligandome analysis (LC-MS/MS) of healthy donor BMNC; conditions: for Number of positive healthy donors (BMNC): HLA class I ligandome, second figure of the cell; for Number of positive healthy donors (BMNC) / rep. frequency % in healthy donors (BMNC): 5 BMNC samples
PBMC of healthy donors = assay: HLA class I ligandome analysis (LC-MS/MS) of healthy donor PBMC; conditions: for Number of positive healthy donors (PBMC): HLA class I ligandome, first figure of the cell; for Number of positive healthy donors (PBMC) / rep. frequency % in healthy donors (PBMC): 30 PBMC samples
primary AML samples = assay: HLA class I ligandome analysis (W6/32 immunoaffinity purification, LC-MS/MS) of primary AML samples; conditions: for Number of positive AMLs: HLA class I ligandome; for Number of positive AMLs / rep. frequency % in AMLs: 15 AML samples
[1] = HLA class I, source protein level
[2] = source protein level, HLA class I

Molecule	Number of positive healthy donors (BMNC) (BMNC of healthy donors)	representation in normal BMNC ligandomes (positive/total) (BMNC of healthy donors; [1])	rep. frequency % in healthy donors (BMNC) (BMNC of healthy donors; source protein level) [%]	rep. frequency % in healthy donors (BMNC) (BMNC of healthy donors; source protein level, listed as MPO) [%]	Number of positive healthy donors (PBMC) (PBMC of healthy donors)	representation in PBMC ligandomes (positive/total) (PBMC of healthy donors; [1])	rep. frequency % in healthy donors (PBMC) (PBMC of healthy donors; source protein level) [%]	Number of positive AMLs (primary AML samples)	detected/represented in AML patient ligandomes (positive/total) (primary AML samples; [1])	rep. frequency % in AMLs (primary AML samples; [2]) [%]	rep. frequency % in AMLs (primary AML samples; source protein level, HLA class I, listed as MPO) [%]
B1	3	3/5	60.0	60	0	0/30	0.0	6	6/15	40.0	40
B2	4		80.0		2		6.6	2		13.3	
B3	0		0.0		1		3.3	2		13.3	
B4	3		60.0		15		50.0	6		40.0	
B5	0		0.0		0		0.0	2		13.3	
B6	0		0.0		0		0.0	2		13.3	
B7	1		20.0		1		3.3	4		26.7	

From patent US10525115B2 (Immatics Biotechnologies GmbH, priority 2014, dated 2020)
